Where “and” joins values, the source holds several entries; their conditions need not be identical. Equal entries are not always repeated. Some of the results follow.
What was measured:
Assay in all cases: protein microarray (ProtoArray v5.0), streptavidin-Alexa Fluor 647
Conditions in all cases: 3'-biotin; 20 mM Tris (pH 7.5), 5 mM MgCl2, 100 mM KCl, 0.1% Tween-20, A/T-rich and random oligonucleotide blockers; temperature not stated; high values mean tight binding
[1] = tested on: Uncharacterized protein C12orf60 (human)
[2] = tested on: Uncharacterized protein C17orf66 (human)
[3] = tested on: Uncharacterized protein C1orf74 (human)
[4] = tested on: Uncharacterized protein C2orf57 (human)
[5] = tested on: Uncharacterized protein C2orf62 (human)
[6] = tested on: Uncharacterized protein C4orf32 (human)
[7] = tested on: Uncharacterized protein C7orf50 (human)
[8] = tested on: Uncharacterized protein C8orf41 (human)
[9] = tested on: Uncharacterized protein CXorf38 (human)
[10] = tested on: V-type proton ATPase subunit F (human)
[11] = tested on: V-type proton ATPase subunit e 1 (human)
VAC14 (human) = tested on: VAC14 (human)
VAPA (human) = tested on: VAPA (human)
VEGFA (human) = tested on: VEGFA (human)
VPS25 (human) = tested on: VPS25 (human)
VPS29 (human) = tested on: VPS29 (human)
VPS33B (human) = tested on: VPS33B (human)
VPS36 (human) = tested on: VPS36 (human)
VPS37A (human) = tested on: VPS37A (human)
[12] = tested on: Vesicle-trafficking protein SEC22b (human)

GGTGACAGGGGTATGGGGAGGGG [G4-2 biotinylated (Ct1)]
binding signal [1]: -0.398 z-score | binding signal [2]: -0.386 z-score | binding signal [3]: -0.391 z-score | binding signal [4]: -0.383 z-score | binding signal [5]: -0.397 z-score | binding signal [6]: -0.368 z-score | binding signal [7]: 4.88 z-score | binding signal [8]: -0.378 z-score | binding signal [9]: -0.389 z-score | binding signal [10]: -0.397 z-score | binding signal [11]: -0.381 z-score | binding signal (VAC14 (human)): -0.39 z-score | binding signal (VAPA (human)): -0.385 z-score | binding signal (VEGFA (human)): -0.369 z-score | binding signal (VPS25 (human)): -0.409 z-score | binding signal (VPS29 (human)): -0.38 z-score and -0.388 z-score | binding signal (VPS33B (human)): -0.375 z-score | binding signal (VPS36 (human)): -0.398 z-score | binding signal (VPS37A (human)): -0.39 z-score | binding signal [12]: -0.381 z-score
